The record followed here is paper PMC6281615.

Chains of the proteins cited; added tags and fusions are not shown.
UniProt Q96GD4: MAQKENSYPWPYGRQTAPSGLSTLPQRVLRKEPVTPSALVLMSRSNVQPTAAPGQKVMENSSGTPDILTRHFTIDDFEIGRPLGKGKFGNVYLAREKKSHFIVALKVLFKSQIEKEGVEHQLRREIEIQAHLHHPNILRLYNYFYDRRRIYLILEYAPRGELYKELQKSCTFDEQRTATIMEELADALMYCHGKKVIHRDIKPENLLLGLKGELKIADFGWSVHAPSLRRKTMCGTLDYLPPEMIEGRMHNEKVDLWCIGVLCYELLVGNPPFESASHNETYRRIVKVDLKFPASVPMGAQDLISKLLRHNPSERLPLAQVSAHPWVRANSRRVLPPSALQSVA
UniProt O70126: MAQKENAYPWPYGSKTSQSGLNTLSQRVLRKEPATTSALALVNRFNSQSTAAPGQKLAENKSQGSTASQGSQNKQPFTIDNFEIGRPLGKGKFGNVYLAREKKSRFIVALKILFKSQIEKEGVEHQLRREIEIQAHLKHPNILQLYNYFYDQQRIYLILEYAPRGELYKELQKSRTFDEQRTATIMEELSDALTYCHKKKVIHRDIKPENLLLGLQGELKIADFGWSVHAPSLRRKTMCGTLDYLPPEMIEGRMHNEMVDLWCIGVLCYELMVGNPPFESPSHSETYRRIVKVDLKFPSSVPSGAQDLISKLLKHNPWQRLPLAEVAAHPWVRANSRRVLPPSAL

These are yes or no findings as the source states them, for the method shown. In cells and extracts the contact can be indirect. Some binding calls cover weakened binding; strength is not graded here. For some assays here: Where a sequence is shown, tags or fusion partners need not be part of it.

Assay [1] deals with T1, Endogenous CREPT (cell line not stated) (UniProt Q9NQG5).
T1 sequence: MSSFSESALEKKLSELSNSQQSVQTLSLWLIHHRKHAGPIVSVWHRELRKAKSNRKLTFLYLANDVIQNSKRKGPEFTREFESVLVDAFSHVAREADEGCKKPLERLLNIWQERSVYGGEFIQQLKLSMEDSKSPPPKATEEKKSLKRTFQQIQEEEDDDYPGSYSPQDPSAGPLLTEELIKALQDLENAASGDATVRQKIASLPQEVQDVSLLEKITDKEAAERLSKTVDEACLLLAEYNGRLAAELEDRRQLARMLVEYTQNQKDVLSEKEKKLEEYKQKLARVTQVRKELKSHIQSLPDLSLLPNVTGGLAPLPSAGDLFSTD
Nature of the assay: co-IP; endogenous proteins; cells synchronized by double thymidine block and released; IP with anti-CREPT antibody at different phases of the cell cycle (phases other than S).

Assay [2] deals with T1, Endogenous CREPT (cell line not stated). The experiment in a line: condition: only cells in S phase after release from double thymidine block; co-IP; endogenous proteins; cells synchronized by double thymidine block and released; IP with anti-CREPT antibody; cells in S phase.
For assay [3], the target named is T2, Flag-CREPT (UniProt Q9NQG5).
T2 sequence: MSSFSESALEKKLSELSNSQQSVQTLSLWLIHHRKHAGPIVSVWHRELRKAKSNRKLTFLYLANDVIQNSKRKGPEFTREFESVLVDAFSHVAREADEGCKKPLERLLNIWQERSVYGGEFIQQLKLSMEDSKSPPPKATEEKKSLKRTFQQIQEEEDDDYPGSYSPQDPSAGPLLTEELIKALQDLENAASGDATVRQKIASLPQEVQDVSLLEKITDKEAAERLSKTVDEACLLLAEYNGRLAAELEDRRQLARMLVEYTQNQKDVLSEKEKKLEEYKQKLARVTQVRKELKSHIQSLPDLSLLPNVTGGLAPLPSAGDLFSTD
Nature of the assay: co-IP; tagged CREPT (Flag or Myc) and HA-Aurora B co-expressed in HEK293T cells; IP with an antibody against the tag of one partner, western blot for the tag of the other.

Assay [4] concerns the target T3, Myc-tagged full length CREPT (UniProt Q9NQG5).
T3 sequence: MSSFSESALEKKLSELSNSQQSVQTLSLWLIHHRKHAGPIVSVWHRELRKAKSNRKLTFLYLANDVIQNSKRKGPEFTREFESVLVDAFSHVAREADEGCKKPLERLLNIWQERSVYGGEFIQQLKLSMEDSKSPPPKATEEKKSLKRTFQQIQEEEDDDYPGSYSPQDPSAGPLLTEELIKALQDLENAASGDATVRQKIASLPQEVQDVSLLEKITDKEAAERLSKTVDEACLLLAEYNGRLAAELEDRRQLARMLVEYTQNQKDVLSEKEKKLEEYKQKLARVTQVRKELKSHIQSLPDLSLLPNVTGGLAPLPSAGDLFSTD
The description is as above.

The target of assay [5] is T4, GST-CREPT (UniProt Q9NQG5).
T4 sequence: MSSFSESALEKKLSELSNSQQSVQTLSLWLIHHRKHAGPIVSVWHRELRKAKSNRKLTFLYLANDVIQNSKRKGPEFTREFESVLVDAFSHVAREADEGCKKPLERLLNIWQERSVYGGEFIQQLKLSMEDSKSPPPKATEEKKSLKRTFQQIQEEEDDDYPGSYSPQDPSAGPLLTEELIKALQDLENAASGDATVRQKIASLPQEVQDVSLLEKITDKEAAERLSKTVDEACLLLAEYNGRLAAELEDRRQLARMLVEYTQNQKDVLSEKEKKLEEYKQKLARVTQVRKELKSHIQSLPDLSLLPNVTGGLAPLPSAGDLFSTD
Nature of the assay: pull-down; GST pull-down with purified GST and GST-CREPT; HA-Aurora B overexpressed in HEK293T cells; only the target purified.

The target of assay [6] is T5, Endogenous CREPT (MGC803 cells) (human (endogenous in MGC803)) (UniProt Q9NQG5).
T5 sequence: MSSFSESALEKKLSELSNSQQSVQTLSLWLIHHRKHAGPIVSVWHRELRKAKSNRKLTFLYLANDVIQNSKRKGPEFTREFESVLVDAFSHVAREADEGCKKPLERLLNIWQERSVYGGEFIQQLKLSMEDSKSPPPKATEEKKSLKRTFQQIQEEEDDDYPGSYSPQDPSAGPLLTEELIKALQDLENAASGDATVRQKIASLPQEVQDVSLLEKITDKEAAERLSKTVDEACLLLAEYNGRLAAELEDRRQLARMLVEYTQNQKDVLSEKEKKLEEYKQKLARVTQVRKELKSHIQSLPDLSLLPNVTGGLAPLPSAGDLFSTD
Nature of the assay: co-IP; endogenous proteins; IP with an anti-CREPT antibody in MGC803 cells and mouse embryonic stem cells.

Assay [7] addresses T6, Endogenous CREPT (mouse embryonic stem cells) (mouse (endogenous in mES cells)) (UniProt Q9CSU0).
T6 sequence: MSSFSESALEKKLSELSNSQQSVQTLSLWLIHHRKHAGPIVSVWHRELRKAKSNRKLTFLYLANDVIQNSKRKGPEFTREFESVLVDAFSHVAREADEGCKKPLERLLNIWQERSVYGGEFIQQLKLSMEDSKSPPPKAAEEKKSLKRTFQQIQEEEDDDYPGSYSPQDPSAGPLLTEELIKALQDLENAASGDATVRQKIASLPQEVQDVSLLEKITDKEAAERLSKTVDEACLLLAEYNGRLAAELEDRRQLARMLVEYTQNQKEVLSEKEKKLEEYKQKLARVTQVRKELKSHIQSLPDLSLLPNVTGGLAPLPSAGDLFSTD
The description is as above.

In assay [8] the target is HA-Aurora B (UniProt Q96GD4). The experiment in a line: co-IP; tagged CREPT (Flag or Myc) and HA-Aurora B co-expressed in HEK293T cells; IP with an antibody against the tag of one partner, western blot for the tag of the other. (In general: In western blotting, separated proteins are transferred to a membrane and probed.)

For “Endogenous Aurora B (cell line not stated) (from UniProt Q96GD4 1-344) (enzyme)”, the binding result in assay [1] is given as “binds”; in assay [2], “no binding”.
On to “HA-Aurora B (from UniProt Q96GD4 1-344) (enzyme)”, for which the binding result in assay [3], in assay [4] and in assay [5] was “binds” throughout.
With “Endogenous Aurora B (MGC803 cells) (from UniProt Q96GD4 1-344) (enzyme)”, in assay [6], the binding entry is recorded as “binds”.
In the case of “Endogenous Aurora B (mouse embryonic stem cells) (from UniProt O70126 1-345) (enzyme)”, the binding entry in assay [7] is “binds”.

B1: Flag-CREPT (protein, UniProt Q9NQG5 1-326)
chain: MSSFSESALEKKLSELSNSQQSVQTLSLWLIHHRKHAGPIVSVWHRELRKAKSNRKLTFLYLANDVIQNSKRKGPEFTREFESVLVDAFSHVAREADEGCKKPLERLLNIWQERSVYGGEFIQQLKLSMEDSKSPPPKATEEKKSLKRTFQQIQEEEDDDYPGSYSPQDPSAGPLLTEELIKALQDLENAASGDATVRQKIASLPQEVQDVSLLEKITDKEAAERLSKTVDEACLLLAEYNGRLAAELEDRRQLARMLVEYTQNQKDVLSEKEKKLEEYKQKLARVTQVRKELKSHIQSLPDLSLLPNVTGGLAPLPSAGDLFSTD
For B1, in assay [8], the binding entry was “binds”.
